This assay has as its target T1, GST-tagged E. coli hinT H101N (E. coli) (UniProt P0ACE7).
T1 sequence: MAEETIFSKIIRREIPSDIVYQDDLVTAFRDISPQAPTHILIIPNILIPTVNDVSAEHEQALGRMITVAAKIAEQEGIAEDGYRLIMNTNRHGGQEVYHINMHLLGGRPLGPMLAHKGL
As to the kind of experiment: affinity purification with mass spectrometry; label-free quantitative LC-MS/MS of proteins enriched with GST-Ec hinT H101N from YUMM3.3 SelO against SelO D338A lysates; filtered for mitochondrial proteins; only the target purified.

These are yes or no findings as the source states them, for the method shown. In cells and extracts the contact can be indirect. These calls come from enrichment with a bait or labelling near it, and not all partners need be listed. Where a sequence is shown, tags or fusion partners need not be part of it.

B1: PdhB, β subunit of pyruvate dehydrogenase E1 complex, endogenous in YUMM3.3 cells expressing SelO (enzyme, UniProt Q9D051 31-359)
chain: VQLTVREAINQGMDEELERDEKVFLLGEEVAQYDGAYKVSRGLWKKYGDKRIIDTPISEMGFAGIAVGAAMAGLRPICEFMTFNFSMQAIDQVINSAAKTYYMSAGLQPVPIVFRGPNGASAGVAAQHSQCFAAWYGHCPGLKVVSPWNSEDAKGLIKSAIRDNNPVVMLENELMYGVAFELPAEAQSKDFLIPIGKAKIERQGTHITVVAHSRPVGHCLEAAAVLSKEGIECEVINLRTIRPMDIEAIEASVMKTNHLVTVEGGWPQFGVGAEICARIMEGPAFNFLDAPAVRVTGADVPMPYAKVLEDNSVPQVKDIIFAVKKTLNI
modifications: AMPylated by SelO, residues not given
For B1, the binding entry is recorded as “binds”.

Source of the values: paper PMC12375108.
